## Primary screen of a compound library

The values are deposited in ChEMBL (CHEMBL3988442, “University of Dundee, Small-Polar-MMV Screening Library” (2021)).

Values are the deposited “Percent Effect”, in %.
The controls that fix the scale are not given in the record; negative values are as filed.
This is an unselected part of the compounds tested.
A dash means the value is not listed here; it may have been measured.

Mtb growth Cornell: 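Whole-cell assay for inhibitors of Mycobacterium tuberculosis growth, labelled Cornell in the record; the read-out is not stated. The concentration is filed as 10 mM, unlikely as a test dose, so the dose is not known. The record gives no direction; compounds strong in two other growth screens of this library score well above the rest, so higher reads as stronger inhibition. Size under these conditions: about 53,000 compounds, about 900 of them at 50% or above in at least one test.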
Mtb heat-shock: 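Assay on Mycobacterium tuberculosis, filed only as a heat shock assay from Cornell; the read-out is not stated. The concentration is filed as 10 mM, unlikely as a test dose, so the dose is not known. The record gives no direction; compounds that gave an IC50 in retests scored well above the rest, so higher reads as stronger inhibition. Of about 69,000 compounds tested this way, about 930 (1.4%) reached 50% or more in at least one test.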

Cc1cc(C(F)(F)F)nn1CCCNC(=O)C1CCCC1 gave Mtb growth Cornell: 22.36%; Mtb heat-shock: 12.65%.
COCCN1CCN(C(=O)NC2CC2)Cc2ccc(C)nc21.O=C(O)C(F)(F)F gave Mtb growth Cornell: 14.66%; Mtb heat-shock: -23.8%.
CN(C1CCN(C(=O)NCCc2ccc(F)cc2F)CC1)S(C)(=O)=O gave Mtb growth Cornell: 13.37%; Mtb heat-shock: 14.55%.
COc1ccc2[nH]cc(C(=O)N3C[C@@H](O)[C@H](N4CCCC4)C3)c2c1 gave Mtb growth Cornell: -14.46%; Mtb heat-shock: -32.87%.
CCn1nc(C)c(CNC(=O)c2cn(CCC3CCCCN3)nn2)c1C (centres unmarked) gave Mtb growth Cornell: 21.77%; Mtb heat-shock: -1.472%.
Cc1nn(C)c(C)c1C1CCCN1C(=O)c1ccc(Cl)o1 (centres unmarked) gave Mtb growth Cornell: 20.41%; Mtb heat-shock: 0.674%.
CCOc1ccnc(N2CCN(C(=O)c3cn[nH]c3CC)CC2)n1 gave Mtb growth Cornell: 25.29%; Mtb heat-shock: -0.5875%.
CC/C=C(/C)C(=O)NCc1ccnc(OC)c1 gave Mtb heat-shock: -19.01%.
CC(C)Cc1noc(CN2CCN(CCOc3ccc(Cl)cc3)CC2)n1 gave Mtb heat-shock: 29.93%.
O=C(C1CNCCN1C(=O)CCOc1ccccc1)N1CCOCC1 (centres unmarked) gave Mtb heat-shock: 10.38%.
O=C1CCCN1Cc1ncn2c1CN(C(=O)Cc1cccs1)CCC2 gave Mtb heat-shock: -15.22%.
[H][C@]12CC[C@]([H])(CN(c3ncnc4ccsc34)C1)N(C)C2=O gave Mtb growth Cornell: 26.9%; Mtb heat-shock: 17.46%.
CCC1CN(C(=O)c2cc(C(C)=O)c(C)[nH]c2=O)CCN1C(C)C (centres unmarked) gave Mtb growth Cornell: 27.85%; Mtb heat-shock: -5.275%.
CN(Cc1ccco1)Cc1ccccc1CNC(=O)c1cnccn1 gave Mtb growth Cornell: 37.66%; Mtb heat-shock: -23.82%.
Cc1ccc(OCCN2CCC(c3nc(C)n4c(C)csc34)CC2)cc1 gave Mtb growth Cornell: 54.47%; Mtb heat-shock: 2.014%.
C[C@H]1CCCCN1CCCNc1nccc(-c2c[nH][nH]c2=O)n1 gave Mtb growth Cornell: -14.71%; Mtb heat-shock: -19.2%.
Cl.O=C(C1CC1)N1CCc2ccccc2C12CCNCC2 gave Mtb growth Cornell: -0.8331%; Mtb heat-shock: 23.96%.
COC(=O)CNCC1(O)CCCN(Cc2cccc(F)c2F)C1=O (centres unmarked) gave Mtb heat-shock: -5.426%.
CCOCCCNC(=O)CCCC(=O)n1nc(C)c2ccccc21 gave Mtb growth Cornell: 10.94%; Mtb heat-shock: 11.32%.
CN1CCc2onc(Cn3cccc3)c2C1.O=C(O)C(F)(F)F gave Mtb growth Cornell: -7.073%; Mtb heat-shock: -14.83%.
Cc1ccc(C(=O)N2CCC(O)(CN3CCc4ccccc4C3)C2)s1 (centres unmarked) gave Mtb heat-shock: 3.209%.
Cc1n[nH]c(C2CN(CCCOc3ccc(F)cc3)CCO2)n1 (centres unmarked) gave Mtb growth Cornell: 18.47%; Mtb heat-shock: -15.52%.
COCC(=O)N1CCCCC1c1nc(C)c2c(n1)N(C1CC1)C(=O)CC2 (centres unmarked) gave Mtb growth Cornell: -40.11%; Mtb heat-shock: -0.6881%.
Cc1nc(-c2ccc(S(=O)(=O)N3CCCCC3)cc2)co1 gave Mtb growth Cornell: 20.79%; Mtb heat-shock: 13.72%.
CC(C)CNC(=O)Cc1cnc(-n2cccc2)s1 gave Mtb growth Cornell: 35.27%; Mtb heat-shock: -6.682%.
N#Cc1ccc(N2CCC3(CC2)CC(N2CCOCC2)CO3)cc1.O=C(O)C(F)(F)F (centres unmarked) gave Mtb growth Cornell: -10.79%; Mtb heat-shock: 25.96%.
CN(C)C(=O)N1Cc2ncn(C)c2C(COCC2CCOCC2)C1.O=C(O)C(F)(F)F (centres unmarked) gave Mtb growth Cornell: 19.47%; Mtb heat-shock: -7.639%.
O=C(O)[C@@H]1CN(Cc2c[nH]c(CC3CCCC3)n2)C[C@H]1c1ccncc1 gave Mtb growth Cornell: -57.96%; Mtb heat-shock: -5.474%.
CCCn1ccc(C(=O)N2CCOC(c3nc(-c4cccs4)no3)C2)n1 (centres unmarked) gave Mtb heat-shock: 3.706%.
CN1CCN(c2ccc(NS(=O)(=O)c3ccc(Cl)s3)cc2C(=O)O)CC1 gave Mtb heat-shock: -13.89%.
O=C(CNC1CCc2ncnn2C1)N(C1=CCCCC1)C1CC1 (centres unmarked) gave Mtb heat-shock: -0.1325%.
O=C(c1ccco1)N1CCCn2cnc(COCC3CC3)c2C1 gave Mtb growth Cornell: 8.044%; Mtb heat-shock: -0.9836%.
Cc1nn(C)c(=O)c2nn(-c3cccc(Cl)c3)c(C)c12 gave Mtb growth Cornell: 42.19%; Mtb heat-shock: -19.77%.
c1cc(CN2CCOCC3(CCN(C4CCOCC4)C3)C2)ccn1 (centres unmarked) gave Mtb growth Cornell: -45.58%; Mtb heat-shock: -43.68%.
COCCc1ncc(CN2CCCC(C(=O)c3ccccc3)C2)cn1 (centres unmarked) gave Mtb growth Cornell: -10.17%; Mtb heat-shock: 6.538%.
CC(C)c1nc(C2CCCN(c3cnc4ccccc4n3)C2)no1 (centres unmarked) gave Mtb heat-shock: 23.27%.

The last 4 entries again:

Compound	Mtb growth Cornell	Mtb heat-shock
Cc1nn(C)c(=O)c2nn(-c3cccc(Cl)c3)c(C)c12	42.19	-19.77
c1cc(CN2CCOCC3(CCN(C4CCOCC4)C3)C2)ccn1 (centres unmarked)	-45.58	-43.68
COCCc1ncc(CN2CCCC(C(=O)c3ccccc3)C2)cn1 (centres unmarked)	-10.17	6.538
CC(C)c1nc(C2CCCN(c3cnc4ccccc4n3)C2)no1 (centres unmarked)	-	23.27